The source of these data is PubChem BioAssay AID694 (Emory University Molecular Libraries Screening Center, 2007).

Chains of the proteins cited; added tags and fusions are not shown.
UniProt P03372, whole entry, looked up: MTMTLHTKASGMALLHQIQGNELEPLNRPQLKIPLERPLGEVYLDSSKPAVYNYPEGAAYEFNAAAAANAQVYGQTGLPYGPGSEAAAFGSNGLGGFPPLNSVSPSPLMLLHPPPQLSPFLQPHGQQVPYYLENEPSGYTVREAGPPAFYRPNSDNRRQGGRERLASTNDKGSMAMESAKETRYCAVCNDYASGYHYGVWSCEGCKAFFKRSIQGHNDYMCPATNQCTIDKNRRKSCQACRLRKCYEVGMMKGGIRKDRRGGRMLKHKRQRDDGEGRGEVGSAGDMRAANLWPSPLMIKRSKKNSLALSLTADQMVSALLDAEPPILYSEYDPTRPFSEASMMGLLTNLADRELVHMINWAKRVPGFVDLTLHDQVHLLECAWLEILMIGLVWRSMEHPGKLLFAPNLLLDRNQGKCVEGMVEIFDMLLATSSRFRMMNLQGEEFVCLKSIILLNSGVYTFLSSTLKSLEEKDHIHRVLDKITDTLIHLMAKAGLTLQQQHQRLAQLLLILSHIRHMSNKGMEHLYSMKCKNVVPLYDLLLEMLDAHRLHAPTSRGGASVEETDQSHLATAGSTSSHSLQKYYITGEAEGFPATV

Some of the results follow. The main result of the screen is listed elsewhere. These columns were measured beside it and carry no call. Residues, ends and D or L forms follow the SMILES beside them. *: point of attachment. Cbz = O=C(OCc1ccccc1)*

The target in the assay is Estrogen receptor (Homo sapiens) (UniProt P03372). Description: ERα coactivator peptide binding inhibitors, primary screen, biochemical, LOPAC library, TR-FRET (AID 694).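 Further: receptor was agonist-bound with estradiol present during the assay.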 Conditions: TR-FRET ERalpha-coactivator peptide binding, at 15 µM, stronger effect = higher value. Background: In TR-FRET formats the signal depends on donor and acceptor labels being close together.
`CNc1ncnc2c1ncn2[C@@H]1O[C@H](CO)[C@H](O)C1O` (stereo partly specified): the inhibition was found to be 3.88%.
In the case of `Cc1cnc(C(=O)NCCc2ccc(S(=O)(=O)NC(=O)NC3CCCCC3)cc2)cn1` it was 8.86%.
As for `COc1ccccc1N1CCN(CCCCNC(=O)c2ccc3ccccc3c2)CC1`, the inhibition was -5.6%.
In the case of `O=C(O)C1CN(CCCP(=O)(O)O)CCN1` (stereo unspecified), the inhibition was -8.49%.
Consider `O=c1cc(N2CCOCC2)oc2c(-c3ccccc3)cccc12`, for which the inhibition was found to be 1.77%.
Regarding `CC(C)NNC(=O)c1ccncc1`, the inhibition was -8.03%.
On to `O=C(O)c1cc(=O)c2ccccc2[nH]1`, for which the inhibition is 6.26%.
In the case of `CN1CCN2c3ccccc3Cc3ccccc3C2C1` (stereo unspecified) it was 1.4%.
In the case of `CC(=O)O[C@H]1C[C@@H]2CC[C@@H]3[C@H](CC[C@@]4(C)[C@H]3C[C@H]([N+]3(C)CCCCC3)[C@@H]4OC(C)=O)[C@@]2(C)C[C@@H]1[N+]1(C)CCCCC1` it was -4.44%; in that of `Cc1nc2sccn2c(=O)c1CCN1CCC(=C(c2ccc(F)cc2)c2ccc(F)cc2)CC1`, -0.91%.
In the case of `CCN1C(=O)C=CC1=O` it was 0.22%; in that of `CCC1(C)CC(=O)NC1=O` (stereo unspecified), 0.13%; in that of `Cc1nc2c([nH]1)c(=O)n(C)c(=O)n2Cc1ccco1`, 2.47%.
For the molecule `OC[C@H]1NC[C@@H](O)[C@@H]1O`, the inhibition was -1.72%.
Take `CC(C)[C@H](NC(=O)OCc1ccccc1)C(=O)N[C@H](C=O)Cc1ccccc1` (Cbz-Val-Phe-aldehyde): the inhibition was found to be 0.18%.
As for `CCCCS(=N)(=O)CCC(N)C(=O)O` (stereo unspecified), the inhibition turned out to be 20.3%.
The figure for `COc1cccc(OC)c1OCCNCC1CSc2ccccc2O1` (stereo unspecified) is 4.39%; for `COc1cc(CNC(=O)CCCCCCC(C)C)ccc1O` it is -0.34%; for `CCCCCCCCCCCCCCCCCCNC(=O)OCC(COP(=O)([O-])OCC[n+]1ccsc1)OC` (stereo unspecified) it is -1.62%.
Regarding `C=CCN1CCc2cc(O)c(O)cc2C(c2ccccc2)C1` (stereo unspecified), the inhibition came out at 5.41%.
Consider `Nc1nc(N)c2nc(-c3ccccc3)c(N)nc2n1`, for which the inhibition was determined as 5.21%.
Take `CC(CN(C)C)CN1c2ccccc2CCc2ccccc21` (stereo unspecified): the inhibition came out at 1.23%.
In the case of `NC(=O)c1ccccc1` it was 2.12%.
On to `NC(N)=NC(N)=Nc1ccccc1`, for which the inhibition was 2.03%.
In the case of `C[C@H](Cc1ccc(O)c(O)c1)[C@@H](C)Cc1ccc(O)c(O)c1` it was 8.86%; in that of `NCCc1ccc(O)c(O)c1`, -1.26%; in that of `O=C1NC(c2cccc([N+](=O)[O-])c2)=CCN1c1ccccc1O`, -0.13%.
With `Nc1ncnc2c1ncn2C1CCCC1`, the inhibition is 3.39%.
As to `CCCN(CC1CC1)c1nc(C)nc(Nc2c(Cl)cc(Cl)cc2Cl)c1Cl`, the inhibition stood at 2.53%.
In the case of `O=C(O)c1cc2cc(F)ccc2[nH]1` it was -4.06%.
Consider `O=C(Nc1ccc([N+](=O)[O-])cc1Cl)c1cc(Cl)ccc1O`, for which the inhibition was determined as 7.1%.
Take `CC12CC3CC(C)(C1)CC(N)(C3)C2`: the inhibition is 5.19%.
In the case of `CC(N)=NCc1cccc(CN)c1` it was 2.66%; in that of `CNCC(O)c1ccc(O)c(O)c1` (stereo unspecified), 6.11%.
Turning to `c1cc(CN2CCCCC2)cc(OCCCNc2nc3ccccc3s2)c1`, the inhibition is 2.89%.
`COc1ccc2c(c1)c(CC(=O)O)c(C)n2Cc1ccc(F)cc1`: the inhibition worked out at 3.51%.
In the case of `C1CCC(N=C(NC23CC4CC(CC(C4)C2)C3)N2CCOCC2)CC1` it was -5.94%; in that of `NC1CCN(O)C1=O` (stereo unspecified), 34%; in that of `O=C(O)CCC(C(=O)O)N1C(=O)c2ccccc2C1=O` (stereo unspecified), 2.55%.
The figure for `CC(=O)Nc1nnc(S(N)(=O)=O)s1` is 6.81%.
For `O=c1ccn([C@@H]2O[C@H](COP(=O)(O)OP(=O)(O)O)[C@@H](O)[C@H]2O)c(=O)[nH]1`, the inhibition was -1.24%.
For the molecule `CC(C(O)c1ccc(O)cc1)N1CCC(Cc2ccccc2)CC1` (stereo unspecified), the inhibition came out at 1.47%.
In the case of `Cc1ccc(OCC(O)C(C)NC(C)C)c2c1CCC2` (stereo unspecified) it was 2.34%; in that of `COc1ccc2c(c1)c(CC(=O)O)c(C)n2C(=O)c1ccccc1`, 1.38%; in that of `C=C/C(C)=C/[C@@]1(C)SC(=O)C(C)=C1O`, 6.08%.
The figure for `CCN(CC)CCOCCOC(=O)C1(c2ccccc2)CCCC1` is 3.69%; for `O=C(c1cc(O)c(O)c([N+](=O)[O-])c1)c1ccccc1F` it is -5.94%.
For `Cc1cc(C(C)(C)C)cc(C)c1CC1=NCCN1`, the inhibition is -1.05%.
Take `O=c1[nH]ccc2c(O)cccc12`: the inhibition is -1.51%.
In the case of `CN(C)S(=O)(=O)c1ccc2c(c1)/C(=C/c1cc3c([nH]1)CCCC3)C(=O)N2`, the inhibition was -3.56%.
As for `CCCNC(=O)NS(=O)(=O)c1ccc(Cl)cc1`, the inhibition is -2.53%.
The figure for `NCCCCCC(=O)O` is -8.76%; for `CC12C(=O)OC(=O)C1(C)C1CCC2O1` (stereo unspecified) it is -6.49%; for `CC(N)C1CCC(C(=O)Nc2ccncc2)CC1` (stereo unspecified) it is -2.72%.
In the case of `NC1(C(=O)O)CC1` it was 0.25%; in that of `CCN(CC)C(=O)c1ccc(O)c(OC)c1`, 2.41%; in that of `O=C(c1ccc(F)cc1)C1CCN(CCn2c(=O)[nH]c3ccccc3c2=O)CC1`, 15.5%.
The figure for `O=C1NCC2(CCN(CCc3ccccc3)CC2)O1` is 1.12%; for `CSC(=N)N` it is -3.29%; for `CC1CCN(CC[C@H]2CCCN2S(=O)(=O)c2cccc(O)c2)CC1` it is -1.55%.
Turning to `COc1cc(C(O)CO)ccc1O` (stereo unspecified), the inhibition was determined as 24.3%.

For orientation: inhibition means the relative decrease from the control value, in per cent.
